Reference: PubChem BioAssay AID652243 (Drosophila RNAi Screening Center, 2013)

Screen: 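Fly regulators of androgen-dependent reporter output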 (primary screen)
Cell system: Drosophila S2R+ cells
Reagents: long dsRNA against Drosophila genes
Duration: 72 h (48 h, then 24 h hormone)
Conditions: synthetic androgen R1881 at 10 nM for 24 h
Measured: 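Firefly light from an androgen-responsive reporter and Renilla control light per well, raw and unnormalised, for each of two replicates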
Scale: firefly reporter light: higher = more light from androgen-responsive reporter; Renilla control light: higher = more constitutive control signal (cell number, transfection)
Rule for the call: 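Across duplicate plates, a knock-down whose log firefly/Renilla ratio shifted a set fold down or up from the GFP/LacZ control mean was a hit; the downward cut appears as both 1.5 and 3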
Meaning of the calls: active = hit: reporter lowered or raised; inactive = no hit
In all, the deposit lists about 24,000 reagents; shown is a random part of those that have a named target and a result. In the full data, 246 (1%) got an active call. 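Plates not normalised; calls are printed but the firefly/Renilla ratio behind them is not deposited; fold cut for lowering reported inconsistently.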 The raw values are shown without normalisation. A plus sign joins genes that one reagent is predicted to hit. No sequences are given here. The record does not give: the amount of reagent.

| gene | amplicon | firefly reporter light, replicate 1 | firefly reporter light, replicate 2 | Renilla control light, replicate 1 | Renilla control light, replicate 2 | outcome |
| --- | --- | --- | --- | --- | --- | --- |
| Vps24 (GeneID 40542) | DRSC12332 | 2.42e5 | 3.02e5 | 2.15e6 | 2.65e6 | inactive |
| Vps24 (GeneID 40542) | DRSC29224 | 5.42e5 | 5.95e5 | 1.30e6 | 9.84e5 | inactive |
| Mettl4 + CG14907 | DRSC26716 | 2.50e5 | 2.68e5 | 7.70e5 | 6.95e5 | inactive |
| RpS28-like (GeneID 5740688) | DRSC38760 | 1.07e6 | 8.97e5 | 2.13e6 | 1.78e6 | inactive |
| CG34178 + CG34177 | DRSC00351 | 1.44e5 | 1.36e5 | 7.19e5 | 7.78e5 | inactive |
| CG1504 (GeneID 33028) | DRSC20513 | 2.75e5 | 1.40e5 | 9.16e5 | 4.75e5 | inactive |
| CG1504 (GeneID 33028) | DRSC26901 | 2.37e5 | 3.29e5 | 5.75e5 | 7.03e5 | inactive |
| lncRNA:CR33987 (GeneID 3885608) | DRSC26079 | 5.21e5 | 3.78e5 | 7.67e5 | 8.27e5 | inactive |
| por (GeneID 32818) | DRSC20362 | 7.51e5 | 7.01e5 | 2.71e6 | 2.57e6 | inactive |
| por (GeneID 32818) | DRSC29877 | 4.95e5 | 4.21e5 | 8.29e5 | 9.43e5 | inactive |
| SkpA (GeneID 31016) | DRSC18833 | 40224 | 36912 | 2.03e5 | 2.54e5 | inactive |
| SkpA (GeneID 31016) | DRSC25163 | 3.85e5 | 3.09e5 | 7.77e5 | 4.81e5 | inactive |
| alpha-Est9 (GeneID 40897) | DRSC12621 | 48401 | 92928 | 1.33e6 | 1.51e6 | inactive |
| a6 (GeneID 31127) | DRSC18733 | 54823 | 39851 | 8.27e5 | 5.22e5 | inactive |
| Mad (GeneID 33529) | DRSC00759 | 83268 | 67674 | 8.33e5 | 8.42e5 | inactive |
| Dhc62B (GeneID 38226) | DRSC08655 | 89744 | 1.04e5 | 8.99e5 | 1.13e6 | inactive |
| CG1407 (GeneID 36043) | DRSC29339 | 9.31e5 | 5.74e5 | 1.03e6 | 1.03e6 | inactive |
| CG13766 (GeneID 33922) | DRSC02271 | 1.77e5 | 1.39e5 | 1.17e6 | 1.07e6 | inactive |
| CG13766 (GeneID 33922) | DRSC29049 | 7.72e5 | 5.17e5 | 1.70e6 | 1.37e6 | inactive |
| Hmgcl (GeneID 33978) | DRSC02051 | 65810 | 82702 | 6.50e5 | 8.66e5 | inactive |
| CG13994 (GeneID 33853) | DRSC02326 | 2.44e5 | 1.82e5 | 3.04e6 | 1.56e6 | inactive |
| CG11885 (GeneID 33215) | DRSC00329 | 5.26e5 | 6.39e5 | 2.01e6 | 3.02e6 | inactive |
| tho2 (GeneID 326153) | DRSC00646 | 6.75e5 | 1.06e6 | 1.50e6 | 1.84e6 | inactive |
| tho2 (GeneID 326153) | DRSC28626 | 3.04e5 | 2.85e5 | 8.97e5 | 8.70e5 | inactive |

4 entries already listed, ordered by “firefly reporter light, replicate 1”, ascending.
| gene | amplicon | firefly reporter light, replicate 1 | firefly reporter light, replicate 2 | Renilla control light, replicate 1 | Renilla control light, replicate 2 | outcome |
| --- | --- | --- | --- | --- | --- | --- |
| Vps24 (GeneID 40542) | DRSC12332 | 2.42e5 | 3.02e5 | 2.15e6 | 2.65e6 | inactive |
| Mettl4 + CG14907 | DRSC26716 | 2.50e5 | 2.68e5 | 7.70e5 | 6.95e5 | inactive |
| Vps24 (GeneID 40542) | DRSC29224 | 5.42e5 | 5.95e5 | 1.30e6 | 9.84e5 | inactive |
| RpS28-like (GeneID 5740688) | DRSC38760 | 1.07e6 | 8.97e5 | 2.13e6 | 1.78e6 | inactive |
